Earlier results in US20100249031A1, “Nutritional Composition Comprising Curcuminoids and Methods of Manufacture” (priority 2009, published 2010).
For at least one compound, name, drawing or mass did not settle the structure.

How the values were obtained:
Microtubule Assembly = conditions: @ 30 μm

Q: For COc1cc(/C=C/C(O)=C/C(=O)/C=C/c2ccc(O)cc2)ccc1O [DMC, demethoxycurcumin], which “Inhibition of Microtubule Assembly” value (Microtubule Assembly) is on record?
A: Its value is 40% @.

Q: What about the “Uptake by Colon Cancer Cells, relative to curcumin = 1.00” value (Colon Cancer Cells) of the same molecule?
A: The value was 1.30.
